Laboratory results published in patent US20050037989A1, “Inhibition of gene function by delivery of polynucleotide-based gene expression inhibitors to mammalian cells in vivo” (priority 2001, published 2005).

How the values were obtained:
[1] = test system: HMGCR mRNA in primary hepatocytes; assay: HMGCR mRNA in primary hepatocytes cultured with anti-HMGCR siRNA and/or atorvastatin (qPCR); assay type: cell-based, C57B6 mice; conditions: 10 μm atorvastatin, 24 hours
Protocol: qPCR assays. Quantitative, real-time PCR was performed using the Bio-Rad icycler system and iCycler reagents as recommended by the manufacturer. The primers used to amplify HMGCR sequences were SEQ ID 17 and SEQ ID 31.
Total RNA from these cells was isolated and transcribed into cDNA using an oligo-dT primer and reverse transcriptase. Subsequently, HMGCR levels were assayed using quantitative, real-time PCR.

[2] = test system: LDL receptor mRNA in primary hepatocytes; assay: LDL receptor mRNA in primary murine hepatocytes treated with atorvastatin and siRNA (qPCR); assay type: cell-based, C57BL6 mice; conditions: 24 hours
Protocol: Transfection and atorvastatin treatment of hepatocytes. […] Then 100 μl of the siRNA transfection cocktail was added to each well. Hepatocyte maintenance media was a 1:1 mixture of DMEM-F12/0.1% BSA/0.1% galactose. siRNA transfection cocktail. Each 100 μl aliquot of siRNA transfection cocktail contained 3.8 μl TransIT-TKO, 275 nM siRNA, and the remaining volume of OPTI-MEM transfection media. The 100 μl aliquots were added to cells in 1 ml of media such that the final siRNA concentration was 25 nM. RNA isolation. After 24 hours of siRNA transfection and atorvastatin treatment, cells were harvested in Tri-Reagent. […] qPCR assays. Quantitative, real-time PCR was performed using the Bio-Rad iCycler system and iCycler reagents as recommended by the manufacturer. The primers used to amplify LDLR sequences were [NT] ID 19) and [NT] ID 22). Primary hepatocytes were isolated from C57BL6 mice and plated on collagen-coated 12-well plates. After allowing them to adhere to the plates for 24 hours, one of two different procedures was followed. In the first, cells were treated with 200 nM atorvastatin in DMSO or DMSO alone for 24 hours. In the second, cells were covered with 1 ml of hepatocyte maintenance media. […]

With `CC(C)c1c(C(=O)Nc2ccccc2)c(-c2ccccc2)c(-c2ccc(F)cc2)n1CC[C@@H](O)C[C@@H](O)CC(=O)O` [atorvastatin, reference compound] as the compound, how does the “HMGCR mRNA levels induced relative to vehicle-treated cells” value [1] read?
Its value is 400%.

What about the “LDLR mRNA levels over a range of atorvastatin concentrations (in words)” value ([2]; 0-200 nM atorvastatin with 25 nM HMGCR or GL3 siRNA, FIG. 8B) of the same compound?
The value was “dose-dependent increase in LDLR mRNA levels”.

What about the “LDL receptor mRNA levels (in words)” value ([2]; 200 nM atorvastatin, FIG. 8A) of the same compound?
The value was “marked increase in LDL receptor mRNA levels”.
